The whole screen tested about 220,000 compounds, of which about 2,400 (1.1%) were called active. The shares of active, inactive and inconclusive entries below differ from those in the screen. Calls come from the whole dose curve; as a rule, active = well fitted inhibition curve with a large enough effect; inconclusive = small, poorly fitted or top-dose-only effect, or effect the other way; inactive = no such curve, though single readings can be large or run the other way. Potencies beside an inconclusive call are fits to weak or partial responses and may not hold up.
assay: qHTS Multiplex Assay to Identify Dual Action Probes in a Cell Model of Huntington: Aggregate Formation (GFP); conditions: PC12 HttQ103-GFP aggregates, Acumen cytometry, 40 h; activity change, negative = inhibition: at 46.1 µM (top of the series) unless noted; note: nearly all actives have a fitted effect of over 60% in size
Summary of the method: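 Inducible Q103 Huntingtin exon 1–GFP PC12 line, 1500 cells/well in phenol red free DMEM with 5% equine and 5% calf serum. Tebufenozide 100 nM induced expression; compounds titrated; aggregates quantified by cytometry.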
% is set by controls: 0 for no effect and ±100 for the full control effect; potency is the fitted concentration of half-maximal effect.

Structure (SMILES)	Potency	activity change, negative = inhibition
Cc1cc(Oc2ccccc2F)nc(NCc2ccccc2)n1	inconclusive: 15.8 µM [inhibitor, single point]	–
O=C(O)/C=C\C(=O)Nc1ccccc1C(=O)NCc1ccccc1	inconclusive: 14.1 µM [activator, single point]	–
O=C(/C=C/c1ccco1)N1CCC(Cc2ccccc2)CC1	inconclusive: 28.2 µM [inhibitor, single point]	–
CCOc1ccc(N2C(=O)/C(=C/c3ccc(C)o3)N(C)C2=S)cc1	inconclusive: 3.55 µM [activator, single point]	–
CCOC(=O)c1c(C)[nH]c(C)c1C(=O)COC(=O)c1cc2ccccc2cc1O	inconclusive: 3.55 µM [inhibitor, single point]	–
O=C(CN(C(=O)c1cc2c(s1)CCC2)C1CCCC1)NCc1cccs1	inconclusive: 31.6 µM [inhibitor, single point]	–
CC(Oc1ccc(-c2ccccc2)c(F)c1)c1ccn(S(=O)(=O)c2ccc(Br)cc2)n1 (stereo unspecified)	inconclusive: 10 µM [inhibitor, partial curve]	–
CCC(=O)Oc1c(C(=O)CC)cc2c(C)cc(=O)oc2c1C	active: 12.6 µM	–
CC(C)Cc1nc(SCC(=O)NCc2ccccc2)n[nH]1	inconclusive: 1.12 µM [inhibitor, partial curve]	–
CN(c1ccccc1)S(=O)(=O)c1ccc(NC(=O)c2ccccc2)cc1	inconclusive: 15.8 µM [inhibitor, single point]	–
COC(=O)C(C(=O)Nc1nc2ccccc2s1)C1CCCC1 (stereo unspecified)	inactive	–
CC(=O)c1c(C)[nH]c(C(=O)OCC(=O)Nc2cc(Cl)ccc2[N+](=O)[O-])c1C	inconclusive: 3.16 µM [inhibitor, single point]	–
S=c1[nH]nc(-c2ccc(Br)cc2)n1-c1ccc2c(c1)OCCO2	–	inactive: 7.74% [at 9.22 µM]
Cn1c(SCC(=O)NC(C)(C)C)nnc1-c1ccc(C(C)(C)C)cc1	inconclusive: 10 µM [inhibitor, partial curve]	–
CNC(=S)N(CCc1c(C)[nH]c2ccc(Cl)cc12)Cc1cccs1	inconclusive: 10 µM [inhibitor, single point]	–
CCCC1=C(C(=O)OCC)C(c2ccc(OC)c(C)c2OC)C(C#N)=C(N)O1 (stereo unspecified)	inconclusive: 8.91 µM [activator, partial curve]	–
CCOc1ccc(-c2cc(CCCC(=O)Nc3cccc(OC)c3)no2)cc1	inconclusive: 10 µM [activator, partial curve]	–
Cc1ccccc1-n1nc(C)c2cc(C(=O)NCc3cccnc3)sc21	inconclusive: 14.1 µM [inhibitor, single point]	–
CCc1ccc(OCC(=O)NC(NC(=S)Nc2ccccc2OC)C(Cl)(Cl)Cl)cc1 (stereo unspecified)	inconclusive: 3.55 µM [inhibitor, single point]	–
COc1ccccc1N1CCN(Cc2ccc(OC)c(OC)c2OC)CC1	inactive	–
c1csc(-c2nc3c4ccccc4c4ccccc4c3[nH]2)c1	inconclusive: 35.5 µM [inhibitor, single point]	–
O=C(Nc1cccc(S(=O)(=O)NC2=NCCC2)c1)C1CC(=O)N(c2ccc3c(c2)OCCO3)C1 (stereo unspecified)	inactive	–
CCOC(=O)C(=O)/C(=C\N(C)C)c1onc(-c2ccccc2)c1C(=O)OC	inactive	–
COc1ccc(S(=O)(=O)NCCSc2ccc(C)cc2)cc1OC	inconclusive: 35.5 µM [inhibitor, single point]	–

Structure (SMILES)	Potency	activity change, negative = inhibition
COc1cccc(/C=C2\Sc3ccc(C(=O)NCc4cccnc4)cc3N(C)C2=O)c1	inconclusive: 15.8 µM [inhibitor, single point]	–
COc1cccc(-n2c(C)nc3c(cnn3-c3ccc(Cl)cc3)c2=O)c1	inconclusive: 1.58 µM [inhibitor, full curve]	–
COc1ccccc1-c1noc(CCC(=O)Nc2ccccc2Cl)n1	inactive	–
CC1(C)COC(c2cccn2Cc2ccccc2Cl)=N1	inconclusive: 35.5 µM [activator, single point]	–
Cc1nc(N2C(=O)C(=O)/C(=C(/O)c3ccccc3)C2c2ccco2)sc1C (stereo unspecified)	inactive	–
CN(C(=O)CSc1nc2ccc(Br)cc2c(=O)n1Cc1ccco1)C1CCS(=O)(=O)C1 (stereo unspecified)	–	inactive: 0.904% [at 9.22 µM]
COc1cccc(-c2nnc(NC(=O)c3ccc(S(=O)(=O)N4CCOCC4)cc3)o2)c1	active: 10 µM	–
Cc1ccc(-n2sc3ccccc3c2=O)cc1S(=O)(=O)N1CCCCC1	inconclusive: 22.4 µM [activator, single point]	–
COCCCNCCCOc1ccc(Cl)cc1C(C)(C)C	active: 7.94 µM	–
COCCNC(=O)COC(=O)CSCc1nc2ccccc2s1	inactive	–
Fc1ccccc1COc1ccccc1/C=N/Nc1nc(N2CCCC2)nc(N2CCCC2)n1	inconclusive: 0.631 µM [inhibitor, full curve, poor fit]	–
O=C(CCc1ccccc1)n1nc(-c2ccccc2)nc1NCc1ccco1	active: 25.1 µM	–
COc1ccc(Cl)c(N2CCN(CCCNC(=O)Nc3ccc(C)cc3)CC2)c1	active: 35.5 µM	–
CSc1nc(Oc2ccccc2)c2sccc2n1	inactive	–
O=C(CSc1ncnc2sc3c(c12)CCCC3)c1ccco1	inconclusive: 35.5 µM [inhibitor, single point]	–
CCOC(=O)c1ccc(N2C(=O)c3n[nH]c(C)c3C2c2ccc(OC)cc2)cc1 (stereo unspecified)	inactive	–
CCCc1cc(C(=O)N2CCN(C(c3ccccc3)c3ccccc3)CC2)no1	active: 22.4 µM	–
O=C(Nc1ccc(SC(F)F)cc1)c1ccc(F)cc1	inconclusive: 12.6 µM [inhibitor, single point]	–
Cc1c(NC(=S)N/N=C/c2cc([N+](=O)[O-])ccc2O)c(=O)n(-c2ccccc2)n1C	–	inactive: -7.26% [at 9.22 µM]
CCCCN(CC)CCCNC(=O)CC1Oc2ccccc2NC1=O (stereo unspecified)	inactive	–
Cc1cc(-c2ccc(N=Nc3c(S(=O)(=O)O)cc4cc(S(=O)(=O)O)cc(N)c4c3O)c(C)c2)ccc1N=Nc1c(S(=O)(=O)O)cc2cc(S(=O)(=O)O)cc(N)c2c1O	active: 0.02 µM	–
Nc1c(-c2ccc(Cl)cc2)cnn1-c1cc(C(F)(F)F)cc(C(F)(F)F)c1	–	inactive: 8.14% [at 9.22 µM]
CSc1ccc(S(=O)(=O)NCCOc2ccccc2C)cc1	inactive	–
O=S(=O)(NCCSCc1c(Cl)cccc1Cl)c1ccc2c(c1)OCCO2	inconclusive: 35.5 µM [inhibitor, single point]	–

Full records from above. Values in the order: Potency | activity change, negative = inhibition
COc1ccc(Cl)c(N2CCN(CCCNC(=O)Nc3ccc(C)cc3)CC2)c1 is entered as active: 35.5 µM | –
Fc1ccccc1COc1ccccc1/C=N/Nc1nc(N2CCCC2)nc(N2CCCC2)n1 is entered as inconclusive: 0.631 µM [inhibitor, full curve, poor fit] | –

(more compounds)

Structure (SMILES)	Potency	activity change, negative = inhibition
C/C(=N\NC(=O)c1c[nH]c2ccccc12)c1ccccn1	inconclusive: 11.2 µM [inhibitor, partial curve]	–
O=C(N/N=C/c1ccccc1O)c1cccc(C(F)(F)F)c1	active: 2.51 µM	–
CC(C)(C)C(=O)Nc1sc(-c2ccccc2)cc1C(=O)O	–	inactive: -2.58% [at 9.22 µM]
O=C(c1cc2cc([N+](=O)[O-])ccc2oc1=O)N1CCN(c2ncccn2)CC1	active: 0.708 µM	–
O=C(Nc1cc(Cl)cc(Cl)c1)C1CCC(=O)N1Cc1ccccc1Cl (stereo unspecified)	inconclusive: 35.5 µM [inhibitor, single point]	–
S=C(NCC1CCCCC1)Nc1ccc(Oc2ccccc2)cc1	inconclusive: 15.8 µM [inhibitor, single point]	–
CCc1nc2n(n1)C(O)c1cc([N+](=O)[O-])ccc1S2 (stereo unspecified)	–	inactive: 4.01% [at 9.22 µM]
O=C1/C(=C/Nc2ccc3c(c2)OCO3)CCc2ccccc21	inconclusive: 35.5 µM [inhibitor, single point]	–
O=C(Nc1ccc2oc(-c3ccc(Cl)c(Cl)c3)nc2c1)c1ncn[nH]1	inconclusive: 5.62 µM [activator, single point]	–
CCN(CC)S(=O)(=O)c1ccc(S(=O)(=O)Nc2ccc3c(c2)oc2ccccc23)cc1	inconclusive: 35.5 µM [inhibitor, single point]	–
C=CCNc1cnn(-c2ccc(C)cc2)c(=O)c1Sc1ccc(C)cc1	inconclusive: 15.8 µM [inhibitor, single point]	–
Cc1ccccc1N(Cc1nnc2n1CCCCC2)C(=O)Nc1ccccc1	inconclusive: 1.12 µM [inhibitor, single point]	–
Cc1sc(NC(=O)c2ccco2)c(C(c2ccc(F)cc2)N2CCN(C)CC2)c1C (stereo unspecified)	inconclusive: 7.94 µM [inhibitor, partial curve]	–
CN1C(=O)/C(=C/c2cccc(Cl)c2)Sc2ccc(C(=O)NCc3cccnc3)cc21	inconclusive: 35.5 µM [inhibitor, single point]	–
Cc1ccc(-c2noc(C3CCN(S(=O)(=O)c4ccc5c(c4)OCCO5)CC3)n2)o1	inconclusive: 20 µM [inhibitor, partial curve, poor fit]	–
S=C(NCCc1ccccc1)N1CCN(Cc2ccccc2)CC1	inactive	–
O=C(CCN1CCc2ccccc2CC1)c1ccc2c(c1)OCCO2	inconclusive: 35.5 µM [inhibitor, single point]	–
COc1ccc(-c2cnc(N)nc2-c2ccc(OC)cc2O)cc1	active: 11.2 µM	–
CC(C)OCCCN1C(=O)c2[nH]nc(-c3ccccc3O)c2C1c1cccc(Cl)c1 (stereo unspecified)	inconclusive: 0.631 µM [inhibitor, single point]	–
Brc1csc(/C=N/Nc2nc3ccccc3s2)c1	inactive	–
c1cn(-c2ncnc3sc4c(c23)CCCC4)cn1	active: 11.2 µM	–
O=C(CCCN1C(=O)CCC1=O)Nc1ccc2c(c1)OCCO2	inactive	–
Cc1nnc2ccc(Oc3ccc(-c4ccccc4)cc3)nn12	inconclusive: 11.2 µM [inhibitor, single point]	–

Of the compounds above, nine contain an aryl thioether with sulfur outside any ring.
Structure (SMILES)	Potency	activity change, negative = inhibition
CC(C)Cc1nc(SCC(=O)NCc2ccccc2)n[nH]1	inconclusive: 1.12 µM [inhibitor, partial curve]	–
Cn1c(SCC(=O)NC(C)(C)C)nnc1-c1ccc(C(C)(C)C)cc1	inconclusive: 10 µM [inhibitor, partial curve]	–
COc1ccc(S(=O)(=O)NCCSc2ccc(C)cc2)cc1OC	inconclusive: 35.5 µM [inhibitor, single point]	–
CN(C(=O)CSc1nc2ccc(Br)cc2c(=O)n1Cc1ccco1)C1CCS(=O)(=O)C1 (stereo unspecified)	–	inactive: 0.904% [at 9.22 µM]
CSc1nc(Oc2ccccc2)c2sccc2n1	inactive	–
O=C(CSc1ncnc2sc3c(c12)CCCC3)c1ccco1	inconclusive: 35.5 µM [inhibitor, single point]	–
O=C(Nc1ccc(SC(F)F)cc1)c1ccc(F)cc1	inconclusive: 12.6 µM [inhibitor, single point]	–
CSc1ccc(S(=O)(=O)NCCOc2ccccc2C)cc1	inactive	–
C=CCNc1cnn(-c2ccc(C)cc2)c(=O)c1Sc1ccc(C)cc1	inconclusive: 15.8 µM [inhibitor, single point]	–

Reference: PubChem BioAssay AID1688 (National Center for Advancing Translational Sciences (NCATS), 2009)
